Assay results published in PubChem BioAssay AID504444 (National Center for Advancing Translational Sciences (NCATS), 2011).
Among all 360,000 compounds or so, about 7,500 (2.1%) were called active. This list was built around the results that the source calls inconclusive (neither active nor inactive); the mix of calls is not that of the screen. Calls follow the shape of the dose curve; as a rule, active = well fitted inhibition curve with a large enough effect; inconclusive = small, poorly fitted or top-dose-only effect, or effect the other way; inactive = flat fitted curve, though single readings scatter. Potencies beside an inconclusive call are fits to weak or partial responses and may not hold up.

Assay: Nrf2 qHTS screen for inhibitors; also: nearly all actives have a fitted effect of over 60% in size
Details: A549 ARE-Fluc reporter, luciferase luminescence, 18-24 h; series mostly up to 46 µM
How it was run: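 A549 ARE_Fluc cells, 5000/well, 5% FBS OPTI-MEM; compounds in dose-response, 18-24 h at 37 °C/5% CO2; CellTiter-Fluor viability read (Ex 405/Em 525), then BugLite luciferase luminescence = Nrf2 activity.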
Potency is read from the fitted curve at half-maximal effect.

SMILES | Potency
O=[N+]([O-])c1cnc2ccc3ccccc3c2c1 | inconclusive: 14.6 µM [falling, partial curve]
CC(=O)N1CCCc2cc(S(=O)(=O)N3CCCC(C(=O)Nc4cccc(F)c4)C3)ccc21 (stereo unspecified) | active: 9.2 µM
COC(=O)c1ccc(CC(C(=O)c2ccccc2)N(C)C)cc1 (stereo unspecified) | inconclusive: 29.1 µM [activator, single point]
CCOC(=O)c1cccc(NC2c3ccccc3C(=O)N2Cc2ccco2)c1 (stereo unspecified) | inconclusive: 23.1 µM [falling, single point]
CCN1CCN(c2nc3c(c(=O)[nH]2)CCCC3)CC1 | inconclusive: 0.103 µM [falling, full curve, poor fit]
O=C(Nc1ccc(OC(=O)N2CCCC2)cc1)N1CCOCC1 | inactive
Clc1ccc(N2CCN(Cc3ccccc3Cl)CC2)cc1 | inconclusive: 29.1 µM [falling, single point]
COc1ccc(CNc2oc(-c3cccc4ccccc34)nc2P(=O)(OC)OC)cc1 | inconclusive: 6.51 µM [falling, single point]
CCCN[C@@H]1C(=O)N2C(C(=O)OCCC)=C(C)CS[C@H]12 | inconclusive: 1.84 µM [falling, partial curve]
CCCCCCC(=O)N/N=C/c1c(O)n(C(C)CC)c(=S)[nH]c1=O (stereo unspecified) | active: 14.6 µM
CC(C)(O)/C=C/C(=O)C(C)(O)C1C(O)CC2(C)C3CC=C4C(C=C(O)C(=O)C4(C)C)C3(C)C(=O)CC12C (stereo unspecified) | active: 1.46 µM
CN1Cc2cccnc2N(C)Cc2cc(Cl)ccc21 | inactive
CC(=O)C12CC(C)=C(C)CC1CC1C3CCC4=CC(=O)CCC4(C)C3CCC12C (stereo unspecified) | inconclusive: 11.6 µM [falling, partial curve, poor fit]
Cc1ccc(C)c(CN2C(=O)c3ccccc3S(=O)(=O)c3ccc(C(=O)N4CCCCCC4)cc32)c1 | active: 20.6 µM
COC(=O)C1=C(c2cc3ccccc3s2)C[C@@H]2CC[C@H]1N2C(=O)N1CCCCC1 | inconclusive: 29.1 µM [falling, single point]
COC(=O)C1=C(c2cccc(OCc3ccccc3)c2)C[C@@H]2CC[C@H]1N2C(=O)NCc1ccc2[nH]ccc2c1 | inconclusive: 20.6 µM [falling, single point]
COC(=O)C1=C(c2ccc(OCc3ccccc3)cc2)C[C@@H]2CC[C@H]1N2C(=O)NCc1ccccc1 | inconclusive: 29.1 µM [falling, single point]
Nc1c(C(=O)Nc2cccc(Br)c2)sc2nc3c(cc12)N1CCC3CC1 | inconclusive: 29.1 µM [falling, single point]
O=C(CCCCCCCCCCC(=O)NCc1cccnc1)NCc1cccnc1 | inconclusive: 0.116 µM [falling, full curve]
O=C(NCc1ccccn1)c1ccccc1Cl | inconclusive: 2.31 µM [falling, partial curve, poor fit]
CCCCn1c(=O)c(C(=O)Nc2cccc(C)c2)c(O)c2ccccc21 | inconclusive: 20.6 µM [activator, partial curve, poor fit]

Fetched by structure from above:
SMILES | Potency
O=C(NCc1ccccn1)c1ccccc1Cl | inconclusive: 2.31 µM [falling, partial curve, poor fit]
CN1Cc2cccnc2N(C)Cc2cc(Cl)ccc21 | inactive
O=[N+]([O-])c1cnc2ccc3ccccc3c2c1 | inconclusive: 14.6 µM [falling, partial curve]

Following part.

SMILES | Potency
COC(=O)C1=C(c2ccc(F)cc2OCc2ccccc2)C[C@@H]2CC[C@H]1N2C(=O)NCc1ccc(OC)c(OC)c1 | inconclusive: 0.291 µM [falling, partial curve, poor fit]
C[C@]12CC[C@H](O)CC1=CCC1C2CC[C@@]2(C)C1CC[C@@H]2OCc1ccccc1 (stereo partly specified) | inconclusive: 4.11 µM [activator, full curve, poor fit]
COc1ccc(-c2cc(=Nc3ccccc3)c3cc(C)ccc3o2)cc1 | inconclusive: 4.11 µM [activator, single point]
C#C[C@@]1(O)CCC2C3CCC4=C/C(=N/OCC(=O)NC(C(=O)O)C(C)O)CC[C@]4(C)C3CC[C@@]21C (stereo partly specified) | inactive
Cc1ccc(N=Nc2cc(C)ccc2N)cc1 | inconclusive: 20.6 µM [activator, partial curve]
O=C(CN1C(=O)CN=C(c2ccccc2)c2ccccc21)Nc1cccc(C(F)(F)F)c1 | inconclusive: 29.1 µM [falling, single point]
COc1cc2c3cc1Oc1cc(ccc1O)C[C@@H]1c4c(cc(OC)c(O)c4Oc4ccc(cc4)C[C@H]3N(C)CC2)CCN1C | inactive
O=C1Nc2ccc(Br)cc2C(c2ccccc2Cl)=NC1O (stereo unspecified) | inactive
C=C1C(C)C2C(Cc3ccccc3)NC(=O)C23C(OC(C)=O)C=CC(C)(O)CC(C)CC=CC3C1O (stereo unspecified) | inconclusive: 2.31 µM [falling, full curve]
O=C(COc1ccc(Br)cc1)N1CCN(Cc2ccc3c(c2)OCO3)CC1 | inconclusive: 29.1 µM [falling, partial curve, poor fit]
CCNC(=S)N(C)CCc1cc2c(c(OC)c1C=C1C(=O)N(C)C(=O)N(C)C1=O)OCO2 | inconclusive: 14.6 µM [falling, partial curve, poor fit]
CCn1cc2nc(SCc3ccccc3Cl)n(CCc3ccccc3)c(=O)c2n1 | active: 18.4 µM
CC1(C)C(C(=O)N2CCN(c3ccc(Cl)cc3)CC2)C1(C)C | inactive
O=C1NCc2c1c1c3ccccc3[nH]c1c1[nH]c3ccccc3c21 | inconclusive: 29.1 µM [falling, single point]
CC(Cc1ccccc1)NC(=O)CCCCC(=O)NC(C)Cc1ccccc1 (stereo unspecified) | inconclusive: 29.1 µM [falling, single point]
Cc1ncoc1C(=O)NCCC(c1ccccc1)c1ccccc1 | inconclusive: 10.3 µM [falling, partial curve]
O=C(Cn1ncc2c3ccccc3n(Cc3ccc(F)cc3)c2c1=O)N1CCC2(CC1)OCCO2 | inconclusive: 13 µM [falling, partial curve]
CCOC(=O)CC(SP1(=S)OCC2(CCCCO2)C(C2CCCCO2)O1)C(=O)OCC (stereo unspecified) | inactive
COc1ccccc1CN1CCCC(C(=O)c2ccccc2SC)C1 (stereo unspecified) | inconclusive: 13 µM [falling, partial curve, poor fit]
BrCC1C[n+]2c(SCc3ccccc3)nc3sc4c(c3c2O1)CCCC4 (stereo unspecified) | inactive
